# For at least one compound, name, drawing or mass did not settle the structure.
# How the values were obtained:
# [1] = cited from earlier work
# rat Schwann cells = experiment: Chaperone/autophagy induction in Schwann cells, Western blot; type: cell-based; settings: free celastrol, 16 h, FIG. 6A
# [2] = system: DRGs depleted of Schwann cells; experiment: HSP70 expression in DRGs depleted of Schwann cells, Western blot; type: cell-based, mouse; settings: celastrol 250 nM and 500 nM, 24 h, FIG. 6C
# [3] = system: mouse Schwann cells co-incubated with mouse DRG; experiment: Chaperone expression in DRG explant cultures under myelinating conditions, Western blot; type: cell-based; settings: 96 h, FIG. 6B
compound,measurement,setting,value
"CC1=C(O)C(=O)C=C2C1=CC=C1[C@@]2(C)CC[C@@]2(C)[C@@H]3C[C@](C)(C(=O)O)CC[C@]3(C)CC[C@]12C [celastrol, 3-hydroxy-9β,13α-dimethyl-2-oxo-24,25,26-trinoroleana-1(10),3,5,7-tetraen-29-oic acid]",Antioxidant potency relative to α-tocopherol,[1],about 15 times
same,HSP70 expression in rat Schwann cells,rat Schwann cells,dose-dependently induced
same,Ratio of autophagy proteins LC3 II to LC3 I in rat Schwann cells,rat Schwann cells,increased
same,HSP70 expression in DRGs depleted of Schwann cells,[2],not affected
same,HSP70 expression by Schwann cells,[3]; 100 nM celastrol,not 100 nM
same,HSP70 expression by Schwann cells,[3]; 250 nM celastrol,induced Schwann cells to increase HSP70 expression
same,HSP27 expression,[3]; 100 and 250 nM,did not affect HSP27 expression
